Measurements as given in US8697877B2, “Oxyindole derivatives with motilin receptor agonistic activity” (RaQualia Pharma Inc., priority 2009, dated 2014).
Some results were stated once for a whole list of compounds, not compound by compound.

By UniProt entry, the sequences of proteins in these tests, tags left out. Where a name states a change or a piece, a line headed by the entry shows the natural chain unless it says otherwise.
UniProt O43193: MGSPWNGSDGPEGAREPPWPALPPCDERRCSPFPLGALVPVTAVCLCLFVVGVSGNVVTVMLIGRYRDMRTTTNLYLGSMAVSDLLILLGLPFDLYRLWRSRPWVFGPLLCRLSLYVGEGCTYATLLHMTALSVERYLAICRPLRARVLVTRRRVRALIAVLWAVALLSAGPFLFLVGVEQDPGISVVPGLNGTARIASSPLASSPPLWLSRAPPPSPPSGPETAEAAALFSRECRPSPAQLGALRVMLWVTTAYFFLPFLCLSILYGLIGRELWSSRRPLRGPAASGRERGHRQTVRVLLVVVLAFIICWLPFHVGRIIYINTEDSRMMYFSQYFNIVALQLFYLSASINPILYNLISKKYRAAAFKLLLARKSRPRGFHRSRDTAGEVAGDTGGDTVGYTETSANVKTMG

molecular target: T1, human motilin receptor (GPR38) (Homo sapiens, UniProt O43193); experiment: GPR38 (Motilin Receptor) Functional Assay, NFAT-beta-lactamase reporter in CHO-K1 cells; assay type: cell-based; conditions: CHO-K1 cell line stably transfected with NFAT-beta-lactamase reporter and human motilin receptor gene; read-out: EC50 (agonistic activity) in the functional assay
T1 construct: expressed in transfected cells; host or cells: CHO-K1
Method: The potencies and efficacies of the compounds of this invention for GPR38 can be determined by reporter assay performed on the human cloned receptor as described herein.
GPR38 (Motilin Receptor) Functional Assay
A CHO-K1 cell line stably transfected NFAT-beta-lactamase reporter and human motilin receptor gene was used. The cells were cultured in culture medium (Dulbecco's modified eagle medium containing 10% fetal bovine serum, 1 mM sodium pyruvate, 0.1 mM MEM nonessential amino acids, 25 mM HEPES buffer, 50 units/mL penicillin, 50 microg/mL streptomycin, 100 microg/mL zeocin, and 500 microg/mL G418). The cells were harvested with 0.05% trypsin EDTA and centrifuged. The cell pellets were resuspended in the culture medium and plated into a black/clear bottom 384-well plate at a density of 8000 cells per well, then incubated at 37° C. with 5% CO2 for over night (about 20 hours). On the day of assay, the culture medium was aspirated and 20 microL of assay medium (Dulbecco's modified eagle medium containing 100 units/mL penicillin and 100 microg/mL streptomycin) was added to each well, then the cell plates were placed in incubator at 37° C. with 5% CO2 for 1.5 hours. Compounds were prepared in 100% DMSO and these were diluted to 5× of final concentration with assay buffer (Hanks balanced salt solution, 20 mM HEPES, and 0.1% BSA), then dispensed into 384-well plate (5 microL/well). After incubation at 37° C. with 5% CO2 for 4.5 hours, CCF4-AM loading solution (Invitrogen Corp.) was added to each well. After incubation for 2 hours at room temperature, fluorescence intensities were measured by using plate reader FDSS (Hamamatsu Photonics K. K.) with excitation 400 nm, emission 465 nm/540 nm. Agonistic activity (EC50) was calculated from the sigmoidal dose-response curve using GraphPad Prism software (GraphPad Software, Inc.).

Structure (SMILES) | EC50
CC1(C)C(=O)N(C2CCN(C(=O)[C@H](CCc3ccccc3)NC(=O)NC3CNC3)CC2)c2ccccc21 [Example 58, (S)-1-(azetidin-3-yl)-3-(1-(4-(3,3-dimethyl-2-oxoindolin-1-yl)piperidin-1-yl)-1-oxo-4-phenyl-butan-2-yl)urea] | ≤ 0.1 µM
CC[C@H](C)[C@H](NC(=O)[C@H]1CC[C@@H](NC)C1)C(=O)N1CCC(N2C(=O)C(C)(C)c3ccccc32)CC1 [Example 41, (1S,3R)-N-((2S,3S)-1-(4-(3,3-dimethyl-2-oxoindolin-1-yl)piperidin-1-yl)-3-methyl-1-oxopentan-2-yl)-3-(methyl-amino)cyclopentanecarboxamide] | ≤ 0.1 µM
CC1(C)C(=O)N(C2CCN(C(=O)[C@H](Cc3ccccn3)NC(=O)[C@@H]3CCCNC3)CC2)c2ccccc21 [Example 42, (R)-N-((S)-1-(4-(3,3-dimethyl-2-oxoindolin-1-yl)piperidin-1-yl)-1-oxo-3-(pyridin-2-yl)propan-2-yl) piperidine-3-carboxamide] | ≤ 0.1 µM
CC1(C)C(=O)N(C2CCN(C(=O)[C@@H](NC(=O)[C@@H]3CCCNC3)C(C)(C)C)CC2)c2ccccc21 [Example 88, (R)-N-((S)-1-(4-(3,3-dimethyl-2-oxoindolin-1-yl)piperidin-1-yl)-3,3-dimethyl-1-oxobutan-2-yl) piperidine-3-carboxamide] | ≤ 0.1 µM
CC1(C)C(=O)N(C2CCN(C(=O)[C@H](CCc3ccccc3)NC(=O)C3(N)CCCC3)CC2)c2ccccc21 [Example 5, (S)-1-amino-N-(1-(4-(3,3-dimethyl-2-oxoindolin-1-yl)piperidin-1-yl)-1-oxo-4-phenylbutan-2-yl) cyclopentanecarboxamide] | ≤ 0.1 µM
CN[C@@H]1CC[C@H](C(=O)N[C@@H](Cc2ccc(O)cc2)C(=O)N2CCC(N3C(=O)C(C)(C)c4ccccc43)CC2)C1 [Example 40, (1S,3R)-N-((S)-1-(4-(3,3-dimethyl-2-oxoindolin-1-yl)piperidin-1-yl)-3-(4-hydroxyphenyl)-1-oxopropan-2-yl)-3-(methylamino)cyclopentanecarboxamide] | ≤ 0.1 µM
CN(C(=O)[C@@H]1CCCNC1)[C@@H](CCc1ccccc1)C(=O)N1CCC(N2C(=O)C(C)(C)c3ccccc32)CC1 [Example 73, (R)—N—((S)-1-(4-(3,3-dimethyl-2-oxoindolin-1-yl)piperidin-1-yl)-1-oxo-4-phenylbutan-2-yl)-N-methylpiperidine-3-carboxamide] | ≤ 0.1 µM
CC1(C)C(=O)N(C2CCN(C(=O)[C@H](CCc3ccccc3)NC(=O)[C@@H]3CCCN3)CC2)c2ccccc21 [Example 4, (S)-N-((S)-1-(4-(3,3-dimethyl-2-oxoindolin-1-yl)piperidin-1-yl)-1-oxo-4-phenylbutan-2-yl)pyrrolidine-2-carboxamide] | ≤ 0.1 µM
CNC1CC(C(=O)N[C@@H](CCc2ccccc2)C(=O)N2CCC(N3C(=O)C(C)(C)c4ccccc43)CC2)C1 (stereo partly drawn) [Example 11, (S)-N-(1-(4-(3,3-dimethyl-2-oxoindolin-1-yl)piperidin-1-yl)-1-oxo-4-phenylbutan-2-yl)-3-(methylamino)cyclobutane-carboxamide] | ≤ 0.1 µM
CC1(C)C(=O)N(C2CCN(C(=O)[C@H](Cc3ccccc3F)NC(=O)C3CCNCC3)CC2)c2ccccc21 [Example 76, (S)-N-(1-(4-(3,3-dimethyl-2-oxoindolin-1-yl)piperidin-1-yl)-3-(2-fluorophenyl)-1-oxopropan-2-yl)piperidine-4-carboxamide] | ≤ 0.1 µM
C[C@@H]1CN(CC(=O)N[C@@H](CCc2ccccc2)C(=O)N2CCC(N3C(=O)C(C)(C)c4ccccc43)CC2)CCN1 [Example 19, N-((S)-1-(4-(3,3-dimethyl-2-oxoindolin-1-yl)piperidin-1-yl)-1-oxo-4-phenylbutan-2-yl)-2-((R)-3-methylpiperazin-1-yl)acetamide] | ≤ 0.1 µM
CN(C(=O)N[C@@H](CCc1ccccc1)C(=O)N1CCC(N2C(=O)C(C)(C)c3ccccc32)CC1)[C@@H]1CCNC1 [Example 59, 3-((S)-1-(4-(3,3-dimethyl-2-oxo-indolin-1-yl)piperidin-1-yl)-1-oxo-4-phenylbutan-2-yl)-1-methyl-1-((R)-pyrrolidin-3-yl)urea] | ≤ 0.1 µM
CC1(NC(=O)N[C@@H](Cc2ccc(Cl)cc2)C(=O)N2CCC(N3C(=O)C(C)(C)c4ccccc43)CC2)CCNCC1 [Example 97, (S)-1-(3-(4-chlorophenyl)-1-(4-(3,3-dimethyl-2-oxo-indolin-1-yl)piperidin-1-yl)-1-oxopropan-2-yl)-3-(4-methylpiperidin-4-yl)urea] | ≤ 0.1 µM
CC1(C)C(=O)N(C2CCN(C(=O)[C@@H](NC(=O)C3CCNCC3)C(C)(C)C)CC2)c2ccccc21 [Example 81, (S)-N-(1-(4-(3,3-dimethyl-2-oxoindolin-1-yl)piperidin-1-yl)-3,3-dimethyl-1-oxo-butan-2-yl)piperidine-4-carboxamide] | ≤ 0.1 µM
CN[C@H]1CCN(C(=O)N[C@@H](Cc2ccccc2)C(=O)N2CCC(N3C(=O)C(C)(C)c4ccccc43)CC2)C1 [Example 89, (S)—N—((S)-1-(4-(3,3-dimethyl-2-oxoindolin-1-yl)piperidin-1-yl)-1-oxo-3-phenylpropan-2-yl)-3-(methylamino)pyrrolidine-1-carboxamide] | ≤ 0.1 µM
CC1(C)C(=O)N(C2CCN(C(=O)[C@H](Cc3cccc(F)c3)NC(=O)C3CCNCC3)CC2)c2ccccc21 [Example 77, (S)-N-(1-(4-(3,3-dimethyl-2-oxoindolin-1-yl)piperidin-1-yl)-3-(3-fluorophenyl)-1-oxopropan-2-yl)piperidine-4-carboxamide] | ≤ 0.1 µM
CC1(C)C(=O)N(C2CCN(C(=O)[C@H](CCc3ccccc3)NC(=O)CNC3CCCC3)CC2)c2ccccc21 [Example 18, (S)-2-(cyclopentylamino)-N-(1-(4-(3,3-dimethyl-2-oxoindolin-1-yl)piperidin-1-yl)-1-oxo-4-phenylbutan-2-yl)acetamide] | ≤ 0.1 µM
CN(C(=O)N[C@@H]1CCCNC1)[C@@H](CCc1ccccc1)C(=O)N1CCC(N2C(=O)C(C)(C)c3ccccc32)CC1 [Example 74, 1-((S)-1-(4-(3,3-dimethyl-2-oxoindolin-1-yl)piperidin-1-yl)-1-oxo-4-phenylbutan-2-yl)-1-methyl-3-((R)-piperidin-3-yl)urea] | ≤ 0.1 µM
CC1(C)C(=O)N(C2CCN(C(=O)[C@H](Cc3ccccc3)NC(=O)C3CCNCC3)CC2)c2ccccc21 [Example 75, (S)-N-(1-(4-(3,3-dimethyl-2-oxoindolin-1-yl)piperidin-1-yl)-1-oxo-3-phenylpropan-2-yl)piperidine-4-carboxamide] | ≤ 0.1 µM
CC1(C)CN(C(=O)N[C@@H](CCc2ccccc2)C(=O)N2CCC(N3C(=O)C(C)(C)c4ccccc43)CC2)CCN1 [Example 66, (S)-N-(1-(4-(3,3-dimethyl-2-oxo-indolin-1-yl)piperidin-1-yl)-1-oxo-4-phenylbutan-2-yl)-3,3-dimethyl-piperazine-1-carboxamide] | ≤ 0.1 µM
CN(C)CCC(=O)N[C@@H](CCc1ccccc1)C(=O)N1CCC(N2C(=O)C(C)(C)c3ccccc32)CC1 [Example 16, (S)-N-(1-(4-(3,3-dimethyl-2-oxoindolin-1-yl)piperidin-1-yl)-1-oxo-4-phenylbutan-2-yl)-3-(dimethylamino)propanamide] | ≤ 0.1 µM
CC1(NC(=O)N[C@@H](Cc2ccccc2Cl)C(=O)N2CCC(N3C(=O)C(C)(C)c4ccccc43)CC2)CCNCC1 [Example 96, (S)-1-(3-(2-chlorophenyl)-1-(4-(3,3-dimethyl-2-oxo-indolin-1-yl)piperidin-1-yl)-1-oxopropan-2-yl)-3-(4-methylpiperidin-4-yl)urea] | ≤ 0.1 µM
CC1(NC(=O)N[C@@H](Cc2ccccc2C(F)(F)F)C(=O)N2CCC(N3C(=O)C(C)(C)c4ccccc43)CC2)CCNCC1 [Example 95, (S)-1-(1-(4-(3,3-dimethyl-2-oxoindolin-1-yl)piperidin-1-yl)-1-oxo-3-(2-(trifluoro-methyl)phenyl)propan-2-yl)-3-(4-methylpiperidin-4-yl)urea] | ≤ 0.1 µM

test system: not listed separately; experiment: PAMPA (Parallel Artificial Membrane Permeation Assay); assay type: in vitro ADME; conditions: artificial membrane 4% phosphatidylcholine and 1% stearic acid in dodecane, pH 6.5, 30° C., 2.5 hours

Structure (SMILES) | effective permeability value (Pe)
CN(C(=O)[C@@H]1CCCNC1)[C@@H](CCc1ccccc1)C(=O)N1CCC(N2C(=O)C(C)(C)c3ccccc32)CC1 [Example 73, (R)—N—((S)-1-(4-(3,3-dimethyl-2-oxoindolin-1-yl)piperidin-1-yl)-1-oxo-4-phenylbutan-2-yl)-N-methylpiperidine-3-carboxamide] | >= 2.0 cm×10^−6/sec
CC1(C)C(=O)N(C2CCN(C(=O)[C@H](CCc3ccccc3)NC(=O)[C@@H]3CCCN3)CC2)c2ccccc21 [Example 4, (S)-N-((S)-1-(4-(3,3-dimethyl-2-oxoindolin-1-yl)piperidin-1-yl)-1-oxo-4-phenylbutan-2-yl)pyrrolidine-2-carboxamide] | >= 2.0 cm×10^−6/sec
CN(C(=O)N[C@@H]1CCCNC1)[C@@H](CCc1ccccc1)C(=O)N1CCC(N2C(=O)C(C)(C)c3ccccc32)CC1 [Example 74, 1-((S)-1-(4-(3,3-dimethyl-2-oxoindolin-1-yl)piperidin-1-yl)-1-oxo-4-phenylbutan-2-yl)-1-methyl-3-((R)-piperidin-3-yl)urea] | >= 2.0 cm×10^−6/sec
CC1(C)CN(C(=O)N[C@@H](CCc2ccccc2)C(=O)N2CCC(N3C(=O)C(C)(C)c4ccccc43)CC2)CCN1 [Example 66, (S)-N-(1-(4-(3,3-dimethyl-2-oxo-indolin-1-yl)piperidin-1-yl)-1-oxo-4-phenylbutan-2-yl)-3,3-dimethyl-piperazine-1-carboxamide] | >= 2.0 cm×10^−6/sec
